Assay [1] has as its target T1, GST-BRCA2 fragment (1613-1781) containing BRC5 repeat (human) (UniProt P51587).
T1 sequence: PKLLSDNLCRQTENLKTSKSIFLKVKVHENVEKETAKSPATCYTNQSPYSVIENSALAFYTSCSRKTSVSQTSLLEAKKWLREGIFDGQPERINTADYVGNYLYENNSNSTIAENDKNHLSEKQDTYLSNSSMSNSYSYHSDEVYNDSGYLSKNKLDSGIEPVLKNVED
Briefly: pull-down; GST-BRCA2 fragment on Glutathione Sepharose beads, 293T cell extracts expressing Flag-HMG20b; 50mM Tris-HCl pH 7.4, 300mM NaCl, 1% NP-40, 5mM EDTA, 10mM NaF, 0.1% BSA; 30 minutes at room temperature; anti-Flag western blot; only the target purified.

The target of assay [2] is T2, Biotinylated BRC5 peptide (BRCA2 amino acid residues 1661-1695) (human) (UniProt P51587).
T2 sequence (peptide, biotin (position not stated)): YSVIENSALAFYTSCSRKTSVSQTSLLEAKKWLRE
The experiment in a line: pull-down; 1 nmol biotinylated BRC5 peptide on Dynabeads M-280 Streptavidin, 100 pmol purified HMG20b fragment; 50mM Tris-HCl pH 7.4, 150mM NaCl, 1% NP-40, 5mM EDTA, 10mM NaF, 0.1% BSA; 30 minutes at room temperature; Coomassie staining; both purified.

These are yes or no findings as the source states them, for the method shown. For some assays here: Binding seen in cells or lysates may run through a third protein. Some binding calls cover weakened binding; strength is not graded here. Sequences can lack the tags named with a protein.

B1: full-length FLAG-HMG20b (wild type) (protein, UniProt Q9P0W2 1-317)
chain: MSHGPKQPGAAAAPAGGKAPGQHGGFVVTVKQERGEGPRAGEKGSHEEEPVKKRGWPKGKKRKKILPNGPKAPVTGYVRFLNERREQIRTRHPDLPFPEITKMLGAEWSKLQPTEKQRYLDEAEREKQQYMKELRAYQQSEAYKMCTEKIQEKKIKKEDSSSGLMNTLLNGHKGGDCDGFSTFDVPIFTEEFLDQNKAREAELRRLRKMNVAFEEQNAVLQRHTQSMSSARERLEQELALEERRTLALQQQLQAVRQALTASFASLPVPGTGETPTLGTLDFYMARLHGAIERDPAQHEKLIVRIKEILAQVASEHL
As for B1, in assay [1], the binding result is “binds”.

B2: HMG20b fragment aa265-317 with C-terminal 6xHis tag (domain or fragment, UniProt Q9P0W2 265-317)
chain: SLPVPGTGETPTLGTLDFYMARLHGAIERDPAQHEKLIVRIKEILAQVASEHL
Turning to B2, the binding result in assay [2] is on record as “no binding (tested: 100 pmol fragment with 1 nmol peptide)”.
